Counter-ions that a name gives are not always drawn.
Legend:
α1 adrenalin receptor = assay: Binding test on [3H] prazosin, cerebral cortex receptor fraction; set-up: species or system SD rats; settings: rat cerebral cortex receptor fraction, about 0.2 nM [3H] prazosin, room temperature 60 min; read-out: α 1
Protocol: (1) Binding test on serotonin 1A, serotonin 2 and α1 adrenalin receptors
As radioisotope-labeled compounds, use was made of the following reagents (mfd. by NEN). • 3) [^3H] 8-Hydroxy-dipropylaminotetralin (8-OH-DPAT). • 4) [^3H] Ketanserin hydrochloride. • 5) [^3H] Prazosin.
These compounds and test compounds, when insoluble in water, were dissolved in ethanol and then diluted with distilled water so as to each give an ethanol concentration of 10%. Methysergide maleate was dissolved in distilled water before using.
Use was made of SD rats aged 6 to 8 weeks.
The rats were sacrificed by dcapitation to extirpate the cerebra. […]
IC50 was calculated by the probit method, while Ki was determined in accordance with the following formula: Ki=IC50(1+c/Kd) wherein c represents the concentration of the radioisotope-labeled compound, and Kd represents the dissociation constant of the radioisotope-labeled compound with respect to the receptor determined by Scatchard's analysis. […]
To the receptor fraction of the cerebral cortex were added a test compound and about 0.2 nM of [^3H] prazosin and the resultant mixture was incubated at room temperature for 60 min. […] After washing the glass filter with 50 mM Tris hydrochloride (pH 7.4), the radioactivity of the receptor was measured with a liquid scintillation counter. […]

serotonin 1A receptor = target: T1, serotonin 1A receptor (Rattus norvegicus, UniProt P19327); assay: Binding test on [3H] 8-hydroxy-dipropylaminotetralin, hippocampus receptor fraction; set-up: species or system SD rats
T1 construct: To the receptor fraction of the hippocampus were added a test compound and 0.5 nM of [^3H]; 8-hydroxy-dipropylaminotetralin; from tissue; host or cells: rat hippocampus membrane fraction
T1 sequence (P19327 1-422): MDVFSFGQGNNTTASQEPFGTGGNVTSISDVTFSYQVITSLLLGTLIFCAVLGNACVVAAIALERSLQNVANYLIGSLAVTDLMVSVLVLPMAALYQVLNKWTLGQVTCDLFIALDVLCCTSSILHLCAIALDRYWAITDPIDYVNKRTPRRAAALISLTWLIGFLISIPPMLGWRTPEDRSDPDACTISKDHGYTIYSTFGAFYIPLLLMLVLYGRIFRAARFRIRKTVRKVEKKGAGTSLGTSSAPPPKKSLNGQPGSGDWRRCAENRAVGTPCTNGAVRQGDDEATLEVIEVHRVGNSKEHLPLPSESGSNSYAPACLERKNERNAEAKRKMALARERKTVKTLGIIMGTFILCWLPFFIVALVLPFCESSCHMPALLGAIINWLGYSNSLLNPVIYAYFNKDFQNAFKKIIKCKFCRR

`CN1CCC(=C2c3ccccc3C=Cc3ccccc32)CC1` [Cyproheptadine, cyproheptadine hydrochloride, reference compound] was tested, and the Ki (α1 adrenalin receptor) was 1900 nM and the Ki (serotonin 1A receptor) was 29.5 nM.

Reference: patent US6875761B2 (Eisai Co., Ltd., priority 1997, dated 2005)
